Assay results reported in the supplement of paper PMC11732987, “Enantioselective OTUD7B fragment discovery through chemoproteomics screening and high-throughput optimisation” (Communications Chemistry, 2025).
Some of the results follow. The data scatter; read single values as rough.

Sequences of proteins named here, by UniProt entry; tags and fusion partners are left off. A change or cut given only in a name is not applied to a line headed by its entry. Residues count along the entry.
UniProt Q96BH1: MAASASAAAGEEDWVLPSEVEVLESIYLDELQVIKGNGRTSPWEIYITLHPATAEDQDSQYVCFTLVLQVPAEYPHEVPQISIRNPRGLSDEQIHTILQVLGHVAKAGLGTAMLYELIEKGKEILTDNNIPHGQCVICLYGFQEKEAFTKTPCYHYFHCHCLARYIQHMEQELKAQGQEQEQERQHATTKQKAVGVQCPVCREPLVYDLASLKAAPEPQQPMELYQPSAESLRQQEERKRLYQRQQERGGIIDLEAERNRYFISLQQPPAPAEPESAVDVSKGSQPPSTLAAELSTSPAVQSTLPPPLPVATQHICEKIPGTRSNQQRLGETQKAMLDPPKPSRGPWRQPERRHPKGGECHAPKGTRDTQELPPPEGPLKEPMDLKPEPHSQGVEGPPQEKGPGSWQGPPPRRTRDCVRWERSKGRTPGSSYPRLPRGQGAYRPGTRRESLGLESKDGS
UniProt Q05823: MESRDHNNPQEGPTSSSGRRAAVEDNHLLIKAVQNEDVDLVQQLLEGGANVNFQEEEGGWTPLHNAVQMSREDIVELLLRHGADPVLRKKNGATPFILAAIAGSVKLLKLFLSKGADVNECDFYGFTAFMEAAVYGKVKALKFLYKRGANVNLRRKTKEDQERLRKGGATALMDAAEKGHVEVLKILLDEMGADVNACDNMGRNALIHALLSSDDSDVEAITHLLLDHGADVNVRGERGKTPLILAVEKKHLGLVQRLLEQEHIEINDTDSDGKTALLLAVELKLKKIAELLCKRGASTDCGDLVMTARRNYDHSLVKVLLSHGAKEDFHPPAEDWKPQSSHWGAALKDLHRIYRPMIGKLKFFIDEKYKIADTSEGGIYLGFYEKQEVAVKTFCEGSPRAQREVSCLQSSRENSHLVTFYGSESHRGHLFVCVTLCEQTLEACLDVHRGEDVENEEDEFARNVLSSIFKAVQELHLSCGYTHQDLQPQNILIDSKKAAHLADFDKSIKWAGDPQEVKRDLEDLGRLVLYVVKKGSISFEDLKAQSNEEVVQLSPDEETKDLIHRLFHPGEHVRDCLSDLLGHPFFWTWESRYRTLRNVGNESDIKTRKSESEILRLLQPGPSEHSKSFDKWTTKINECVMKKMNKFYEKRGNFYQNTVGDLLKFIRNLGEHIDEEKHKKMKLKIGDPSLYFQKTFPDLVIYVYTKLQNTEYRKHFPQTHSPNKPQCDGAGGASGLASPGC
UniProt Q9NZ71: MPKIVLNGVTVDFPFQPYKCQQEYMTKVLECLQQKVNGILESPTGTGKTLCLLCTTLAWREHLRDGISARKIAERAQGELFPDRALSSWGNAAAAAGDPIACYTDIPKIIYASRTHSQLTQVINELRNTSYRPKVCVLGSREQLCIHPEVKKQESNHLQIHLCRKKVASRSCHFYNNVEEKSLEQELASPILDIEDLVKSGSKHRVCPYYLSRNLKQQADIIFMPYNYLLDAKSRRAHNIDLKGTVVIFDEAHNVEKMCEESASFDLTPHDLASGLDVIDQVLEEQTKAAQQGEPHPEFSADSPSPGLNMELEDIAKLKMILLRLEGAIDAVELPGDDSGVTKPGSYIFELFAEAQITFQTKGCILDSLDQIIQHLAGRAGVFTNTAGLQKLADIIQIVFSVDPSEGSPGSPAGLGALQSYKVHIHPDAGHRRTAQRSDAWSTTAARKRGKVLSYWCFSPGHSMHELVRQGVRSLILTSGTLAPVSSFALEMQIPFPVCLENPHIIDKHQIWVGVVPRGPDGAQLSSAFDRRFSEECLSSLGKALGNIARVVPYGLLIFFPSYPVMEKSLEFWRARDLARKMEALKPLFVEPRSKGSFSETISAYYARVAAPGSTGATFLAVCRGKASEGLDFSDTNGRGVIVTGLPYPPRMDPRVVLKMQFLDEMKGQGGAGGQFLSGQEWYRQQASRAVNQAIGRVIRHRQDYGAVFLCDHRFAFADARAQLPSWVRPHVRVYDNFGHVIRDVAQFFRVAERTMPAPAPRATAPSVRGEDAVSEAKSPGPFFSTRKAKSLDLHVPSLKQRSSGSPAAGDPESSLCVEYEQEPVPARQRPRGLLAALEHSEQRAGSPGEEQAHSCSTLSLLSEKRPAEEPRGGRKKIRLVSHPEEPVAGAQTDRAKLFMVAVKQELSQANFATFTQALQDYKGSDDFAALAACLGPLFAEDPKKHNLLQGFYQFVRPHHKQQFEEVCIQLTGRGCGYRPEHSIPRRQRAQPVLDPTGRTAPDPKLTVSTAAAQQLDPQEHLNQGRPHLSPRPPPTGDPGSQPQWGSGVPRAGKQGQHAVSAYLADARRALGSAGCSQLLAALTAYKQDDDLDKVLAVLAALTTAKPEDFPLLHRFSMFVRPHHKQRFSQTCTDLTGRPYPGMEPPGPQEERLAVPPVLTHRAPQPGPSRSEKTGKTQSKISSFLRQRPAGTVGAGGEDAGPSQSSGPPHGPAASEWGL
UniProt O00442, 340-366: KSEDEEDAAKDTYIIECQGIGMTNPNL

compound: ClCC(=O)N[C@H]1CCCc2ccccc12; experiment: log2 mean competition ratio of IA-DTB cysteine labelling (DMSO/compound) (log2 ratio); higher = stronger cysteine engagement by compound; details: 200 µM; treatment time: 4 h; cell line lysate: HEK293T
Description: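 IA-DTB competitive cysteine chemoproteomics in HEK293T RIPA lysate. Lysates were treated with compound 29 or 30 at 50 or 200 µM for 4 h, then IA-DTB (500 µM, 1 h), trypsin-digested, NeutrAvidin-enriched and analysed by diaPASEF. Competition ratio = intensity DMSO / intensity compound (n=4 treated, n=64 DMSO); binding: mean log2 CR ≥ 1 and p ≤ 0.05 plus QC filters. Target is the cysteine site.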

Target	log2 mean competition ratio
RNF25 C360 (UniProt Q96BH1)	-0.231
RNASEL C395 (UniProt Q05823)	-0.0481
RSL1D1 C96 (UniProt O76021)	0.133
RTEL1 C537 (UniProt Q9NZ71)	0.0697
RNF213 C2943	-0.045
RTCA C356 (UniProt O00442)	-0.205
SACS C3203 (UniProt Q9NZJ4)	0.075
RPL18A C64 (UniProt Q02543)	-0.324
RNF150 C304	-0.194
